The list shows a part of the results. Measured potencies and affinities stand elsewhere. Entries without a call are filed as inconclusive in the source.

A short description of this experiment: activators of PrP 5'UTR-driven reporter translation, dose response, luminescence (AID 1999). The following applies: H4 cells, PrP 5'UTR luciferase reporter; at 12 µM (top of the series) unless noted.
On to `COc1ccc(C(=O)n2c(N)nc3ccccc32)cc1OC`, for which the activation was determined as 55.3%.

On to `O=C(Nc1ccc(F)cc1)/C(Cl)=C/c1ccccc1`, for which the activation worked out at 133%.

Take `COC(=O)c1ccccc1NC(=O)c1cccc(COc2ccccc2Cl)c1`: the activation worked out at 28.9%.

For `c1ccc(C2=NNC(c3ccccn3)=NN2)nc1`, the activation was -4.7%.

As for `Cc1c(-c2nc(N)nc(Nc3ccccc3F)n2)oc2ccccc12`, the activation worked out at 47.1%.

In the case of `O=C(N/N=C/c1ccccc1F)c1csc2c1CCCC2`, the activation turned out to be 67.4%.

`COc1ccc(N2Cc3ccc(OC)c(OC)c3C2=O)cc1`: the activation was determined as 42.1%.

With `Cc1nn(-c2ccccn2)c2c1-c1nc(N)ncc1CC2`, the activation turned out to be 38.2%.

As to `Cn1ncc2c(Nc3ccc4ccccc4c3)ncnc21`, the activation was found to be 63.5%.

For the molecule `Nc1c(C(=O)N2CCCCC2)sc2nc3c(cc12)CCCC3`, the activation was found to be 47.7%.

Take `Nc1nn(-c2cccc(F)n2)cc1-c1ccccc1`: the activation came out at 70.5%.

Take `CCOC(=O)c1sc(NC(=O)C(C)(C)C)cc1C`: the activation came out at 95.2%.

`C=CCSc1nnc2c(n1)[nH]c1c(C)cccc12`: the activation was 99.1%.

`O=C1C2C3CCC(C3)C2C(=O)N1c1ccc(OS(=O)(=O)c2ccccc2)cc1` (stereo not given): the activation was determined as 54.3%.

For `CCOC(=O)c1cc(-c2ccc3c(c2)OCCO3)n[nH]1`, the activation amounted to 63.3%.

With `CN(C)c1ccc(N=Cc2nc(-c3ccccc3)oc2OC(=O)c2cccc(Br)c2)cc1`, the activation came to 43.9%.

As for `Cc1nn(-c2ccc(N3CCCCC3)nn2)c(C)c1CCC(=O)Nc1cccc(F)c1`, the activation came out at 57.9%.

For the molecule `CCOC(=O)c1c(C)[nH]c(C2=NNC(=NC(C)COC)SC2)c1C` (stereo not given), the activation worked out at 43.6%.

As to `COc1ccc(N/C=C\C(=O)c2ccc3c(c2)OCO3)cc1`, the activation was found to be 42.2%.

Turning to `CC(C)c1ccc(C(=O)NNC(=O)C2C3CCC(C3)C2C(=O)O)cc1` (stereo not given), the activation turned out to be 54.1%.

On to `Cc1ccc(/C=N/N=C/c2ccc(C)s2)s1`, for which the activation is 54.5%.

Consider `COc1ccc(NC(=O)NC(=O)c2ccccc2)cc1`, for which the activation was determined as 58.4% [at 6 µM].

Regarding `CCCS(=O)(=O)NCc1cn2c(C)csc2n1`, the activation is 76.5%.

With `O=C(NCCc1ccccc1)c1ccc(Cl)nc1`, the activation was 20.9%.

In the case of `COc1cc(/C=N/NC(=Nc2ccc(C)cc2)c2nc3ccccc3s2)ccc1O`, the activation was found to be 48.3%.

Consider `O=[N+]([O-])c1cc(S(=O)(=O)/N=C(/c2ccccc2)N2CCOCC2)ccc1Cl`, for which the activation is 14.2%.

`CCc1ccc(-c2ccc(C(=O)C(F)(F)F)[nH]2)cc1`: the activation is 80%.

Turning to `COc1ccc2c(c1)CC/C2=N\OC(=O)c1cccc(C)c1`, the activation was found to be 84.4%.

With `Cc1occc1C(=O)N=Nc1c(O)n(C)c2ccccc12`, the activation came out at 95.5% [at 6 µM].

Take `CC(/C=N/NC(=O)c1cccc(F)c1)=C\c1ccccc1`: the activation was 24.9%.

As for `Cc1nn(-c2ccccc2)c(C)c1C(=O)OCC(=O)N(C)C1CCS(=O)(=O)C1` (stereo not given), the activation came to 70.4%.

Turning to `N=c1oc2c3c4c(cc2cc1C(=O)Nc1ccccc1)CCCN4CCC3`, the activation came to 111%.

Take `Cc1ccc(-c2csc(NC(=O)C3=COCCO3)n2)cc1C`: the activation was 59.5%.

Turning to `O=C(Nc1ccccc1)C(=O)Nc1ccc2c(c1)N(C(=O)C1CC1)CCC2`, the activation was 36.7%.

On to `Cc1c2cnn(CC(=O)NC3CCCC3)c(=O)c2c(C)n1Cc1ccccc1`, for which the activation is 53.7%.

As to `CCC1C(=O)n2nc(-c3ccccc3)cc2N=C1C` (stereo not given), the activation turned out to be 54.3%.

`Cc1ccc2nc(-c3ccc(NS(=O)(=O)c4c(C)n(C)c(=O)n(C)c4=O)cc3)sc2c1`: the activation is 70.9%.

For the molecule `FC(F)Oc1ccc(C2N=C(c3ccccc3)NO2)cc1` (stereo not given), the activation was 70%.

Take `CC(C)(C)n1ncc2c(=O)n(CC(=O)c3ccc(Cl)cc3)cnc21`: the activation worked out at 67.4%.

For `Cc1c(-c2nc(-c3ccc(C(F)(F)F)cc3)no2)n(C)oc1=O`, the activation worked out at 25.5% [at 6 µM].

As for `Cc1ccc(-c2nc3nc4ccccc4nc3n2Cc2ccco2)cc1`, the activation was found to be 53.1%.

Take `O=C(c1ccccn1)c1cc2ccccc2n1S(=O)(=O)c1ccccc1`: the activation was 64.2%.

On to `Cc1ccccc1-c1nnc(SCc2ccccc2)o1`, for which the activation stood at 64.5%.

In the case of `O=C(NCCS(=O)(=O)NCCc1ccccc1)c1ccc2c(c1)OCO2`, the activation came to 24.5%.

As for `CC(C)c1nc2oc3ccccc3c(=O)c2c(=O)n1-c1ccccc1`, the activation came to 70.3%.

With `COc1ccc(-c2ccc(-c3nnn(CC(C)=O)n3)cc2)cc1`, the activation was determined as 49.5%.

Regarding `O=C(c1cccc(COc2ccc(Cl)cc2Cl)c1)N1CCN(c2ccccn2)CC1`, the activation was 91.8%.

In the case of `COC(=O)c1ccc(OCc2cc(=O)n3ccsc3n2)cc1`, the activation amounted to 71.8%.

In the case of `CCN(CC)c1nc(C)nc2c1cnn2CCc1ccccc1`, the activation was 68.8%.

For `Cc1nn(Cc2ccccc2)c(Cl)c1C(=O)NCCc1ccccc1`, the activation amounted to 24%.

For the molecule `CCOC(=O)c1sc2nc(NC(=O)C(C)(C)C)sc2c1C`, the activation turned out to be 75.4%.

Take `C(/C=C/c1ccco1)=N/N1CCN(c2ccccc2)CC1`: the activation was found to be 83.2%.

As to `Cc1csc2nc(CSc3nc4ccccc4o3)c(Br)n12`, the activation amounted to 64.9%.

Turning to `O=C(Nc1cnc2ccccc2c1)N1CCCCC1`, the activation was found to be 28.8%.

In the case of `Clc1c(CSc2nc3ccccc3o2)nc2ccccn12`, the activation was determined as 4.2%.

Regarding `O=C(CCc1nnc(C2CCCCC2)o1)N1CCN(c2ccccc2F)CC1`, the activation was 118%.

`NC(=O)C1=C[C@H](C2CCCCC2)C[C@H](OCc2ccc(CO)cc2)O1`: the activation was determined as 44.4%.

Take `Cc1ccc(C(=O)Nc2ccc(C(F)(F)F)n(C)c2=O)cc1`: the activation was found to be 84.7%.

As for `c1ccc(NC2=Nc3ccccc3CS2)cc1`, the activation was 111%.

With `Cn1c(=O)c(/C=C/c2ccccc2)nc2ccccc21`, the activation worked out at 106%.

In the case of `CCOC(=O)c1cnc(SCC(=O)c2ccccc2)nc1N`, the activation is 52.2%.

As for `CCOC(=O)c1sc(=NC(=O)c2ccc(C)c(C)c2)n(C)c1C`, the activation stood at 80.9%.

As to `COc1ccc(-n2nnnc2-c2nc3ccccc3s2)cc1`, the activation amounted to 10.7%.

In the case of `CCCc1cc(C(=O)NCC(C)C)no1`, the activation is 59.5%.

With `Cc1cc(=O)oc2cc(NC(=O)c3ccccc3Cl)ccc12`, the activation is 69%.

As to `Nc1nc2ccccc2n1/N=C/c1ccc(-c2ccccc2)o1`, the activation is 60%.

Turning to `Cc1ccc(C(=O)OCC(=O)c2cc(C)n(CC3CCCO3)c2C)cc1` (stereo not given), the activation is 68%.

Consider `CCc1cc2c(=O)n(C(C)C(=O)OC3CCCCC3)cnc2s1` (stereo not given), for which the activation was 86.1%.

`O=C(COc1ccc(Br)cc1Cl)NC1CCCCC1`: the activation was 85.9%.

Consider `C/C(N)=C(/C#N)C(=O)CSc1nc2ccc(C)cc2[nH]1`, for which the activation was found to be 76.3%.

Consider `CCOC(=O)CSc1nc(-c2ccncc2)ccc1C#N`, for which the activation is 42.6%.

For `O=C(COC(=O)c1ccc[nH]c1=O)NCCc1ccc(Cl)cc1Cl`, the activation turned out to be 52.8%.

On to `CC(C)(C)c1ccc(NC(=O)Nc2ccc(F)cc2)cc1`, for which the activation turned out to be 36%.

As to `O=C(Nc1ccc(Cl)cc1)c1ccc(OCC2CCCO2)cc1` (stereo not given), the activation was found to be 51.7%.

As to `CCc1sc(C(=O)Nc2ccc3c(c2)OCCO3)cc1Br`, the activation was 59.1%.

The values above are taken from PubChem BioAssay AID1999 (Broad Institute, 2009).
